Binding data for 1 substance are collected here from publication PMC6618013.

Chains of the proteins cited; added tags and fusions are not shown.
UniProt Q6Y1S1: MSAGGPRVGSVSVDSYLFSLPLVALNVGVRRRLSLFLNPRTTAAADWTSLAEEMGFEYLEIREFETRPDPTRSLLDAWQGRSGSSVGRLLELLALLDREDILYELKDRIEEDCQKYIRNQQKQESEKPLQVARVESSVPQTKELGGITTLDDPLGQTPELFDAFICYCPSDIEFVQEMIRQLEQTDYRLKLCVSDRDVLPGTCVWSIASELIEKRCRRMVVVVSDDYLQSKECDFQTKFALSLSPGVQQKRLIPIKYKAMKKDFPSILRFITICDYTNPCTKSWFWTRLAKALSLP

The assay has as its target T1, toll‐like receptor 4 (TLR4) (rat (endogenous in rat peritoneal macrophages)) (UniProt Q9QX05).
T1 sequence: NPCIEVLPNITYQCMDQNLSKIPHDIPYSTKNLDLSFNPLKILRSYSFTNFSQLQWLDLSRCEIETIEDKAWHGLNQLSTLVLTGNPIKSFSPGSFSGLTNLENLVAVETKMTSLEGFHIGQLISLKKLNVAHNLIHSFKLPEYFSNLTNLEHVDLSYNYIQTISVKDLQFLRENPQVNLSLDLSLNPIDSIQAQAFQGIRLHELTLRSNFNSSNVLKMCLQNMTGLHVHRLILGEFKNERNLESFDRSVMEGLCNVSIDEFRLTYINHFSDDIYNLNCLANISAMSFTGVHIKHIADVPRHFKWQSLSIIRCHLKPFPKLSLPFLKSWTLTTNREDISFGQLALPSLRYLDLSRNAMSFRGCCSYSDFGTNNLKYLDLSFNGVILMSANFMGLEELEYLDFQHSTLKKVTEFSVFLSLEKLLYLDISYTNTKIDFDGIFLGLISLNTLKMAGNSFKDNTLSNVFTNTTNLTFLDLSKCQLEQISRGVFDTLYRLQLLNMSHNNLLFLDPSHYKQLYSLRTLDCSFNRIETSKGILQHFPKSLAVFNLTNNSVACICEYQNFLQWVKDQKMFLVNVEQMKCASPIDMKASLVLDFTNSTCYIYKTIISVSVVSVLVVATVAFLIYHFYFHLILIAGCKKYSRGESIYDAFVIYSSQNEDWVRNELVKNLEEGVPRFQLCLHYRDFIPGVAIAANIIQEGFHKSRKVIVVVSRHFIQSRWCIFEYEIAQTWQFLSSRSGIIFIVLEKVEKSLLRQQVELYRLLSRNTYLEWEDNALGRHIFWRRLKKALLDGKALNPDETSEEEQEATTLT
As to the kind of experiment: co-IP; macrophages treated with LPS (100 ng/ml) and 3 µg/ml gCTRP9, MD2‐neutralizing antibody (100 ng/ml) or vehicle for 15 min; cell extracts precipitated with anti‐MD2 (blot for TLR4) or anti‐TLR4 (blot for MyD88), protein A magnetic beads, 4°C overnight.

Results are given in words; binding and its absence hold for the method and conditions named. In cells and extracts the contact can be indirect. Some entries that bind do so weakly or less than the wild type.

With “myeloid differentiation factor 88 (MyD88) (from UniProt Q6Y1S1 1-296)”, the binding entry is listed as “binds”.
